Experimental data from PMC12141448.

Target: T1, PelB of P. aeruginosa PAO1, C-terminal fragment (residues 762-1193) with three periplasmic TPR repeats and the transmembrane β-barrel (Pseudomonas aeruginosa PAO1) (UniProt Q9HZE5)
T1 sequence: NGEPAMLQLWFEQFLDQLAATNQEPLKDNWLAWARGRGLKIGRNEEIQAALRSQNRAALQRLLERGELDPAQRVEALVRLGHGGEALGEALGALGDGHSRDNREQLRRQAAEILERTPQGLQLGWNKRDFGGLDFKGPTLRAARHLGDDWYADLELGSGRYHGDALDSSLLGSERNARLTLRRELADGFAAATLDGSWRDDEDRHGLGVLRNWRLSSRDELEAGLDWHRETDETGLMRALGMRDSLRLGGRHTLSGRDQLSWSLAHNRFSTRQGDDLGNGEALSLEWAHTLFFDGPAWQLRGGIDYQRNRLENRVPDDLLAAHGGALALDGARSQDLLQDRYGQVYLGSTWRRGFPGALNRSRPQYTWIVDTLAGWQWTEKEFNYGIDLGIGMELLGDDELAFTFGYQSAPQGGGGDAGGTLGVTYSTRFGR
Test: pull-down; Ni-NTA IMAC on His-tagged PelB co-expressed with tag-less PelC in E. coli; membranes solubilised with 2% DDM; 50 mM HEPES pH 7.4, 300 mM KCl, 5% glycerol, 0.05% DDM, 4 °C; SDS-PAGE of the fractions

Substance: PelC_(W149A) mutant (Pseudomonas aeruginosa PAO1)
- binding: no binding

Results are given in words; binding and its absence hold for the method and conditions named. Binding seen in cells or lysates may run through a third protein.
